Reference: PMC12142464, “High-light-inducible proteins control associations between chlorophyll synthase and the Photosystem II biogenesis factor Ycf39” (Plant Physiology, 2025)
These are yes or no findings as the source states them, for the method shown. Binding seen in cells or lysates may run through a third protein. Some results given as binding are weak or reduced against the parent protein; the word gives no strength.

Target: High-light-inducible protein D (native) (Synechocystis sp. PCC 6803 (endogenous in Synechocystis)) (UniProt P72932)
Test: co-IP; f.ChlG isolated with anti-FLAG resin from membranes solubilised with 1% n-dodecyl-β-D-maltoside and 1% glycol-diosgenin; eluate resolved by 2D CN (A8-35 amphipol)/SDS-PAGE, CBB stain; strains f.chlG/ΔchlG (HL 2 h), f.chlG/ΔchlG/ΔhliC (HL 2 h), f.chlG/ΔchlG/ΔhliC/Δycf39 (NL)

binding: binds
B1: High-light-inducible protein D (native) (natural protein, UniProt P72932 1-57, looked up)
chain: MSEELQPNQTPVQEDPKFGFNNYAEKLNGRAAMVGFLLILVIEYFTNQGVLAWLGLR
notes: High-light-inducible protein HliD (6.5 kDa), Synechocystis sp; PCC 6803; also called HliD; ScpE; source: endogenous, Synechocystis solubilised membranes
